{"sequences": {"note": "Sequences of proteins named here, by UniProt entry; tags and fusion partners are left off. A change or cut given only in a name is not applied to a line headed by its entry.", "UniProt P18054": "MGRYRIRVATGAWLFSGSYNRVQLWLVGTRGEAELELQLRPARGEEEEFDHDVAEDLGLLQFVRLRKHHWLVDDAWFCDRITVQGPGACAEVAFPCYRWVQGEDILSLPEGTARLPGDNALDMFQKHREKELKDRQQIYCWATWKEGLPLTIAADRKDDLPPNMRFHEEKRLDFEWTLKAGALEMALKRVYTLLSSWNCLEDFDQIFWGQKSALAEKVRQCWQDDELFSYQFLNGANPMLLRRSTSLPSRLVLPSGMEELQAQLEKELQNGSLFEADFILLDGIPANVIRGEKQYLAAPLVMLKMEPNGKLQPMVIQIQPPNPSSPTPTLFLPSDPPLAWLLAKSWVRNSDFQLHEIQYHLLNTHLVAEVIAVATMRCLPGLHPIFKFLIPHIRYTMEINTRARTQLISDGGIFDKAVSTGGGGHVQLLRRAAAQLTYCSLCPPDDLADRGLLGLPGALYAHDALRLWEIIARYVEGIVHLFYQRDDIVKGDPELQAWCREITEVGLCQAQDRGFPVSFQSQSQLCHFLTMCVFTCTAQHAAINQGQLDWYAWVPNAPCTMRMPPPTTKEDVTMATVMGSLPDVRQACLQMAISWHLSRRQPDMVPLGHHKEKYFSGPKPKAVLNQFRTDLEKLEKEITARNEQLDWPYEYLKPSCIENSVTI"}, "source": "PubChem BioAssay AID1671190", "about": "(National Center for Advancing Translational Sciences (NCATS), 2021)", "note": "Several values for one entry are separate records, joined by “and”; a condition that tells them apart may be missing. Identical values can stand only once. About 6,100 (1.1%) of roughly 580,000 compounds were called active. This list was built around the results that the source calls inconclusive (neither active nor inactive); the mix of calls is not that of the screen. Calls follow the shape of the dose curve; as a rule, active = well fitted inhibition curve with a large enough effect; inconclusive = small, poorly fitted or top-dose-only effect, or another doubt; inactive = no such curve, though single readings can be large or run the other way. Potencies beside an inconclusive call are fits to weak or partial responses and may not hold up. Where a structure was tested more than once in an assay, its records may differ in their call. % is scaled to controls: 0 for no effect and ±100 for the full control effect; potency is read from the fitted curve at half-maximal effect.", "data": [{"target": "Polyunsaturated fatty acid lipoxygenase ALOX12 (Homo sapiens) (UniProt P18054)", "experiment": "Primary qHTS assay for inhibitors of human arachidonate 12S-lipoxygenase (ALOX12): Round 2", "settings": "purified 12hLO, xylenol orange hydroperoxide absorbance; activity change, negative = inhibition: at 108 µM (top of the series) unless noted", "how_it_was_run": "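Hydroperoxide product was detected by ferrous iron/xylenol orange as the 573 to 405 nm absorbance ratio. Arachidonic acid at 40 uM (final) was turned over for 30 min at room temperature by 150 nM human 12hLO, pH 7.0 Hepes buffer, after 15 min compound preincubation.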", "values": [{"compound": "Cc1ccc(C(C)C)cc1OCC(=O)Nc1ccc(N2CCCCC2)cc1", "Potency": "inconclusive: 50.1 µM [inhibitor, partial curve, poor fit]"}, {"compound": "COc1ccc2ccc(OC(=O)c3ccc(CNC(C)=O)cc3)cc2c1", "Potency": "inconclusive: 44.7 µM [inhibitor, partial curve, poor fit]"}, {"compound": "O=C(O)COc1ccc(/C=C/c2nc3ccccc3c(=O)n2-c2ccc(C(=O)O)cc2)cc1", "Potency": "inconclusive: 50.1 µM [inhibitor, partial curve, poor fit]"}, {"compound": "O=C1c2ccccc2CN1C1CCN(Cc2cncs2)CC1", "activity change, negative = inhibition": "inactive: 1.42% [at 6.33 µM]"}, {"compound": "COc1cc(Cl)c(C)cc1NC(=O)CN1C(=O)NC(c2ccc(Cl)cc2)C2=C1COC2=O", "note": "(stereo unspecified)", "Potency": "inconclusive: 8.91 µM [inhibitor, full curve]"}, {"compound": "CC(OC(=O)c1nn(C)c(=O)c2ccccc12)c1ccccc1", "note": "(stereo unspecified)", "activity change, negative = inhibition": "inactive: -8.02%"}, {"compound": "CCN(CC)S(=O)(=O)c1ccc(OC)c(NS(=O)(=O)c2ccc3ccccc3c2)c1", "Potency": "inconclusive: 0.631 µM [inhibitor, full curve, poor fit]"}, {"compound": "Cc1ccc(CN2CCC[C@]3(N[C@H](c4ccc(C(F)(F)F)cc4)[C@@H]4C(=O)N(C)C(=O)[C@@H]43)C2=O)cc1", "Potency": "inconclusive: 100 µM [inhibitor, single point]"}, {"compound": "CC(C)C(OC(=O)c1cccs1)C(=O)NCc1ccco1", "note": "(stereo unspecified)", "Potency": "inconclusive: 141 µM [inhibitor, single point]"}, {"compound": "Cc1ccc(NC(=S)NC2CCCCC2)cc1S(=O)(=O)N(C)C", "Potency": "inconclusive: 70.8 µM [inhibitor, partial curve, poor fit]"}, {"compound": "COc1ccc(-c2noc(-c3ccc(N4C[C@H]5CC[C@H]4C5)nc3)n2)cc1", "activity change, negative = inhibition": "inactive: 30.8%"}, {"compound": "COc1cc(/C=C(\\C#N)c2nc3ccccc3s2)cc([N+](=O)[O-])c1O", "Potency": "inconclusive: 39.8 µM [inhibitor, partial curve, poor fit]"}, {"compound": "COc1cccc(CNc2nc3nc(C)c(Cl)c(=O)n3[nH]2)c1", "activity change, negative = inhibition": "inactive: 0%"}, {"compound": "CCNC(=O)c1cc(-c2ccc(C)s2)nc2ccccc12", "Potency": "inconclusive: 25.1 µM [inhibitor, partial curve, poor fit]"}, {"compound": "COC(=O)c1sccc1S(=O)(=O)N(CC(=O)Nc1ccccc1C)c1ccc(Cl)cc1", "activity change, negative = inhibition": "inactive: -10.8%"}, {"compound": "O=C(C1CCCCC(=O)N1Cc1ccccc1)N1CCc2ccccc2C1", "note": "(stereo unspecified)", "Potency": "inconclusive: 79.4 µM [inhibitor, single point]"}, {"compound": "CC(=O)N1CCN(c2ccc(NC(=O)c3ccc(C(C)(C)C)cc3)cc2)CC1", "activity change, negative = inhibition": "inactive: 0.349%"}, {"compound": "O=C(O)/C=C/c1csc2ccccc12", "activity change, negative = inhibition": "inactive: 11.2%"}, {"compound": "CC(C)N1CCC(NC(=O)CC23CC4CC(CC(C4)C2)C3)CC1", "Potency": "inconclusive: 112 µM [inhibitor, single point]"}, {"compound": "O=C(CSc1ncn[nH]1)c1ccc2c(c1)OCCO2", "Potency": "inconclusive: 12.6 µM [inhibitor, full curve, poor fit]"}, {"compound": "Cc1ccc(NC(=O)CCc2ncc(-c3c(F)cccc3F)o2)nc1", "activity change, negative = inhibition": "inactive: 32.4%"}, {"compound": "O=C(O)C(c1c[nH]c2cc(Br)ccc12)N1CCN(Cc2ccc(Cl)cc2Cl)CC1", "note": "(stereo unspecified)", "Potency": "active: 39.8 µM"}, {"compound": "COc1ccccc1-c1nc2c(c(SCc3cc(C)ccc3C)n1)Cc1c(CO)cnc(C)c1O2", "activity change, negative = inhibition": "inactive: -15.8%"}, {"compound": "CCS(=O)(=O)Nc1ccc(C2=NN(C(=O)c3ccccc3)C(c3cccs3)C2)cc1", "note": "(stereo unspecified)", "activity change, negative = inhibition": "inactive: -0.269%"}, {"compound": "COc1ccc(-c2ccc(OC)c([C@H]3[C@@H]4C=CCC[C@@]4(C)C(=O)N3Cc3ccccc3)c2)cc1OC", "Potency": "inconclusive: 89.1 µM [inhibitor, partial curve, poor fit]"}, {"compound": "Cc1ccc(Cl)cc1NC(=S)NCc1cccn1C", "Potency": "inconclusive: 44.7 µM [inhibitor, partial curve, poor fit]"}, {"compound": "Cc1c(C(=O)c2ccc(F)cc2)c2ccccn2c1CCc1ccccn1", "Potency": "inconclusive: 17.8 µM [inhibitor, partial curve, poor fit]"}, {"compound": "CN(c1ccccc1)S(=O)(=O)c1cccc(C(=O)NCCc2ccc(O)c(O)c2)c1", "Potency": "inconclusive: 17.8 µM [inhibitor, full curve, poor fit]"}, {"compound": "Cc1ccc(-c2cc(C(=O)Nc3cccnc3)[nH]n2)c(O)c1C", "Potency": "inconclusive: 44.7 µM [inhibitor, partial curve, poor fit]"}, {"compound": "Cc1csc(SCC(=O)Nc2ccccc2C(N)=O)n1", "Potency": "inconclusive: 126 µM [inhibitor, partial curve, poor fit]"}, {"compound": "COC(=O)c1c(NC(=O)C(C)(C)C)sc2c1CCN(Cc1ccccc1)C2", "Potency": "inconclusive: 112 µM [inhibitor, single point]"}, {"compound": "COc1ccccc1CCNC(=O)c1sc(NC2CCCC2)nc1C", "activity change, negative = inhibition": "inactive: -20.9%"}, {"compound": "CC(C)[C@@H]1Cc2[nH]c(=O)[nH]c(=O)c2[C@H](C)O1", "Potency": "inconclusive: 112 µM [inhibitor, single point]"}, {"compound": "COc1ccc2oc(=O)c(C(=O)NCCc3c(C)[nH]c4ccc(C)cc34)cc2c1", "Potency": "inconclusive: 50.1 µM [inhibitor, partial curve, poor fit]"}, {"compound": "Cc1cc(N2CCOCC2)nc(Nc2ccc(NC(=O)CC3CCCC3)cc2)n1", "Potency": "inconclusive: 112 µM [inhibitor, single point]"}, {"compound": "CC(C)C1CC(CCNCc2ccc(N(C)C)cc2)(c2ccccc2)CCO1", "note": "(stereo unspecified)", "activity change, negative = inhibition": "inactive: -14.7%"}, {"compound": "COC/C=C/C1=CC2=CC(=O)C(C)(OC(=O)c3cnc4ccccc4n3)C(=O)C2=CN1C1CC1", "note": "(stereo unspecified)", "activity change, negative = inhibition": "inactive: -20.3%"}, {"compound": "COc1cccc(-c2nccc(NCc3ccc(OC)cc3OC)n2)c1", "activity change, negative = inhibition": "inactive: -19.4%"}, {"compound": "Cc1ccc(NC(=O)C2CCCN(C(=O)c3cnn(-c4ccccc4)c3-n3cccc3)C2)cc1", "note": "(stereo unspecified)", "Potency": "inconclusive: 39.8 µM [inhibitor, partial curve, poor fit]"}, {"compound": "CN(C)c1ccc(O)c2c1C[C@H]1C[C@H]3[C@H](N(C)C)C(=O)C(C(N)=O)=C(O)[C@@]3(O)C(=O)C1=C2O", "Potency": "inconclusive: 10.9 µM [inhibitor, full curve, poor fit] and inconclusive: 35.5 µM [inhibitor, single point]"}, {"compound": "CCOC(=O)C1CCCN(CC(=O)NC2CC2)C1", "note": "(stereo unspecified)", "Potency": "inconclusive: 0.282 µM [inhibitor, full curve, poor fit]"}, {"compound": "COc1ccc(CNCCC(c2ccc(C)cc2)c2ccco2)cc1", "note": "(stereo unspecified)", "Potency": "inconclusive: 4.47 µM [inhibitor, full curve]"}, {"compound": "COc1ccc(/C=C(\\C#N)C(=O)OCC(=O)NCc2ccco2)cc1", "Potency": "inconclusive: 89.1 µM [inhibitor, single point]"}, {"compound": "O=C(Nc1noc2ccccc12)c1cccc(Cl)c1Cl", "Potency": "inconclusive: 0.251 µM [inhibitor, full curve, poor fit]"}, {"compound": "CCOC(=O)c1nc(Nc2ccc(Nc3ccccc3)cc2)c2ccccc2n1", "activity change, negative = inhibition": "inactive: -15.4%"}, {"compound": "Cc1cccc(OCC(=O)Nc2ccc(S(=O)(=O)Nc3onc(C)c3C)cc2)c1C", "Potency": "active: 39.8 µM"}, {"compound": "CCOc1ccccc1Oc1c(C)oc2cc(O)ccc2c1=O", "Potency": "inconclusive: 100 µM [inhibitor, single point]"}, {"compound": "O=C(Cc1ccccc1F)NCc1cccnc1N1CCCCC1", "activity change, negative = inhibition": "inactive: 53.4%"}, {"compound": "CCN(CC)c1ccc2c(C)c(-c3ccc(N)cc3)c(=O)oc2c1", "activity change, negative = inhibition": "inactive: 116%"}, {"compound": "COc1ccc(C(=O)C(C)OC(=O)Cc2ccc(OC)c(F)c2)cc1", "note": "(stereo unspecified)", "Potency": "inconclusive: 39.8 µM [inhibitor, partial curve, poor fit]"}, {"compound": "Cn1ncc2c(O/N=C(\\N)c3ccc(C(F)(F)F)cc3)ncnc21", "activity change, negative = inhibition": "inactive: 8.21%"}, {"compound": "Nc1ccc(N2CCN(c3ccc(F)cc3)CC2)cc1", "Potency": "inconclusive: 50.1 µM [inhibitor, partial curve, poor fit]"}, {"compound": "Cc1ccc(C(=O)Nc2ncn(CC(=O)NCc3ccc(F)cc3)n2)cc1", "activity change, negative = inhibition": "inactive: 30.1%"}, {"compound": "Cc1cccc(-c2nc(C#N)c(NCc3ccco3)o2)c1", "Potency": "inconclusive: 89.1 µM [inhibitor, single point]"}, {"compound": "CC(C)(C)C1=CC(=O)C(N2CCOCC2)=CC1=O", "Potency": "inconclusive: 0.355 µM [inhibitor, full curve, poor fit]"}, {"compound": "COc1ccc(NCC(=O)n2c(C)c(C)c3ccccc32)cc1", "Potency": "inconclusive: 89.1 µM [inhibitor, single point]"}, {"compound": "CCOC(=O)c1sc(NC(=O)c2ccncc2)c(C#N)c1C", "Potency": "inconclusive: 39.8 µM [inhibitor, partial curve]"}, {"compound": "COc1ccccc1-c1cc(NC(=O)CCOC(C)C)n[nH]1", "activity change, negative = inhibition": "inactive: 22.5%"}, {"compound": "C/C(=N/Nc1ccc(S(N)(=O)=O)cc1[N+](=O)[O-])c1ccc(Cl)cc1Cl", "Potency": "inconclusive: 31.6 µM [inhibitor, partial curve, poor fit]"}, {"compound": "Cc1cc(C(=O)CSc2ncnc3ccccc23)c(C)n1C1CC1", "Potency": "inconclusive: 56.2 µM [inhibitor, partial curve, poor fit] and active: 15.8 µM"}, {"compound": "O=C(NC(c1ccccc1)c1ccc2ccccc2n1)C1CCN(CCOc2ccc(Cl)cc2)CC1", "note": "(stereo unspecified)", "Potency": "inconclusive: 44.7 µM [inhibitor, partial curve, poor fit]"}, {"compound": "CNc1nc(-c2c(C(=O)OC)c(C)n(C3CC3)c2C)cs1", "Potency": "inconclusive: 22.4 µM [inhibitor, partial curve, poor fit]"}, {"compound": "CCC1=C(C(=O)OC)C(c2ccccc2OC)N2C(CC(=O)NCC3CCCO3)=CSC2=N1", "note": "(stereo unspecified)", "activity change, negative = inhibition": "inactive: 46.7%"}, {"compound": "O=C(/C=C/c1ccco1)N1CCN(Cc2ccc(C(F)(F)F)cc2)CC1", "Potency": "inconclusive: 11.2 µM [inhibitor, full curve, poor fit]"}, {"compound": "COc1ccc(OC)c2cc3ccccc3cc12", "Potency": "inconclusive: 28.2 µM [inhibitor, partial curve]"}, {"compound": "Cc1c(C(=O)Oc2cccc3cccnc23)cccc1[N+](=O)[O-]", "activity change, negative = inhibition": "inactive: -14.2%"}]}]}
